# Test: general procedure: Fmoc solid-phase peptide synthesis; polystyrene or PEG based resins; TentaGel RAM resin (0.18 mmol/g) for Peptide No. 12
# Conditions: whole synthesis, analytical reverse-phase HPLC (Dionex UltiMate 3000), acetate salt
row,Substance,final HPLC purity [%]
1,(d)YAEGTFTSDYSIALDKIAQQAFVQWLLAGGPSCNTATCVLGRLSQELHRLQTYPRTNTGK*-N-T-Y-NH2,88.5
2,Y-(d)AEGTFTSDYSIALDKIAQQAFVQWLLAGGPSCNTATCVLGRLSQELHRLQTYPRTNTGK*-N-T-Y-NH2,83.6
3,Y-Aib-E-G-T-F-T-S-D-Y-S-I-Aib-L-D-K-I-A-Q-K*-AFVQWLLAGGPSCNTATCATQRLANFLVHSSNNFGPILPPTNVGSNTY-NH2,98.7

# Test: Fmoc solid-phase peptide synthesis; polystyrene or PEG based resins; TentaGel RAM resin (0.18 mmol/g) for Peptide No. 12
# Conditions: whole synthesis, analytical reverse-phase HPLC (Dionex UltiMate 3000), acetate salt
row,Substance,final HPLC purity [%]
1,(d)YAEGTFTSDYSIQLDKIAQQAFVQWLLAGGPSCNTATCVLGRLSQELHRLQTYPRTNTGK*-N-T-Y-NH2,89.9
2,(d)YAEGTFTSDYSIQLDKIAQQAFVQWLLAGSGCN-TA-TCATQRLANFLVHSSNNFGPILPPTNVGK*-N-T-Y-NH2,91.7
3,(d)YAEGTFTSDYSIQLDKIAQQAFVQWLLAGSGCN-TA-TCVLGRLSQELHRLQTYPRTNTGK*-N-T-Y-NH2,82.8
